Results taken from publication PMC10497535.
Results are given in words; binding and its absence hold for the method and conditions named. Binding seen in cells or lysates may run through a third protein. Tags and fused reporters may be left off the sequences shown.

Target: EGFP-tagged syntaxin-4 (human) (UniProt Q12846)
Test: FRET or BRET; FLIM-FRET in MCF-7 cells co-transfected with pEGFP-C1-Qa-SNARE (donor) and pmCherry-C1 empty vector or pmCherry-C1-SNARE (acceptor); lifetime of EGFP read by TCSPC

B1: mCherry-tagged Sec20 (protein, UniProt Q12981 1-228)
chain: MAAPQDVHVRICNQEIVKFDLEVKALIQDIRDCSGPLSALTELNTKVKEKFQQLRHRIQDLEQLAKEQDKESEKQLLLQEVENHKKQMLSNQASWRKANLTCKIAIDNLEKAELLQGGDLLRQRKTTKESLAQTSSTITESLMGISRMMAQQVQQSEEAMQSLVTSSRTILDANEEFKSMSGTIQLGRKLITKYNRRELTDKLLIFLALALFLATVLYIVKKRLFPFL
Q: How did the binding turn out when B1 was run?
A: Its binding is “no binding”.
